Earlier results in patent publication US8142799B2, “High potency clinical anti-craving treatment and method of use” (priority 2001, dated 2012).
At least one structure is not confirmed: it was looked up by name or label, or the drawing left a doubt.

Settings: cited from earlier work

SMILES | power relative to pyridoxal HCL | amount of riboflavin needed for equivalent effect, relative to riboflavin-S-phosphate [times]
Cc1ncc(COP(=O)(O)O)c(C=O)c1O.O [Pyridoxal-5-phosphate monohydrate, pyridoxal-5-phosphate monohydrate] | many times as powerful | –
Cc1cc2nc3c(=O)[nH]c(=O)nc-3n(C[C@H](O)[C@H](O)[C@H](O)COP(=O)(O)O)c2cc1C [riboflavin-S-phosphate, riboflavin-5-phosphate] | – | 40
